# Test results as given in paper PMC6721280.
# Amino acid sequences for entries named in this document (tags omitted).
# UniProt P53350: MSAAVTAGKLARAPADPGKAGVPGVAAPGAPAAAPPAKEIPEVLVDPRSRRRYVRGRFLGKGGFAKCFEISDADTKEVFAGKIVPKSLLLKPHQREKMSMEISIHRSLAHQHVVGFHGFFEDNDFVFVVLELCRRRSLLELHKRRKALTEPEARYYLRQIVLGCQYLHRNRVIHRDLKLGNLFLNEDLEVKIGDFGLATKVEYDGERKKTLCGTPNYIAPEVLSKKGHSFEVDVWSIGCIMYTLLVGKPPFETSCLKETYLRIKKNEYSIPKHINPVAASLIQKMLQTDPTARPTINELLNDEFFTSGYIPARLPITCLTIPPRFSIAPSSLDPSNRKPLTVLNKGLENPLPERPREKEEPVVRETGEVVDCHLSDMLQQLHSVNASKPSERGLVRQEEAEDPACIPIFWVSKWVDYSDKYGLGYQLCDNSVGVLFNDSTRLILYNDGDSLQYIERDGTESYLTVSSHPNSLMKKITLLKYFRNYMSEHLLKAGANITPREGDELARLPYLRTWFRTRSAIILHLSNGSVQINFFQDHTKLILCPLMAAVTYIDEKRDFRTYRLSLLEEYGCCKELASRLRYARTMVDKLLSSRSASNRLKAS
# No constants are given. Whether binding was seen depends on the method and setting. Binding seen in cells or lysates may run through a third protein. Some binding calls cover weakened binding; strength is not graded here.
# Biological target: T1, endogenous NIPA (human (endogenous in DEL, Mac-1, Karpas and SUDHL-1)) (UniProt Q86WB0)
# T1 sequence: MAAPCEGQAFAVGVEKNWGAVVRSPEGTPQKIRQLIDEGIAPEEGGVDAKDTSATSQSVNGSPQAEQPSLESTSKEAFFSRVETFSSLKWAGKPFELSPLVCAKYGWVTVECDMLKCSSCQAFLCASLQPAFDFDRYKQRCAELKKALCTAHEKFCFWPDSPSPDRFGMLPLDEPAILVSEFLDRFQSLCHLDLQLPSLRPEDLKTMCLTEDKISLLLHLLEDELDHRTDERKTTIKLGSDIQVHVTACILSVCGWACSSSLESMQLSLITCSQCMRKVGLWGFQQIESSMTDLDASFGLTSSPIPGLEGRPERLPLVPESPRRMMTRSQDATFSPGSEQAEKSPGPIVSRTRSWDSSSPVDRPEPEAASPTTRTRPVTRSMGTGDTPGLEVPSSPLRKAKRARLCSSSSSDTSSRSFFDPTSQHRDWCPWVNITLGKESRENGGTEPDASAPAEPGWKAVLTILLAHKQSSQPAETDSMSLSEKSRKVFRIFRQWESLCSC
# Assay: co-IP; endogenous proteins in the ALK-positive cell lines Karpas and SUDHL-1; which protein was precipitated is not told
substance,measurement,value
Polo-like kinase 1 (PLK1) (from UniProt P53350 1-603) (enzyme),binding,binds
